# Assay results taken from PubChem BioAssay AID485349 (National Center for Advancing Translational Sciences (NCATS), 2010).
# Screen size: about 320,000 compounds; about 620 (0.19%) were called active. This list was built around the results that the source calls inconclusive (neither active nor inactive); the mix of calls is not that of the screen. Calls follow the shape of the dose curve; as a rule, active = well fitted activation curve with a large enough effect; inconclusive = small, poorly fitted or top-dose-only effect; inactive = no such curve, though single readings can be large or run the other way. Potencies beside an inconclusive call are fits to weak or partial responses and may not hold up.
# Test: qHTS Assay for Identifying a Potential Treatment of Ataxia-Telangiectasia; also: nearly all actives have a fitted effect of over 45% in size; as to activation: % of control where 0% means no effect
# Settings: […] A-T fibroblasts, KAP-1 phosphorylation AlphaLISA, neocarzinostatin DNA damage 30 min before lysis; series mostly up to 57.5 µM; activation: at the top concentration
# In short: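 hTERT-immortalized A-T patient fibroblasts ([…]), 500 cells/well in OPTI-MEM, 1% FBS, got compounds for 60 min, then NCS for 30 min at 37C. Lysates were then assayed for phospho-KAP-1 by AlphaLISA (anti-pKAP1 donor, anti-KAP1 acceptor beads), 6 hr at 25C.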
# Potency is read from the fitted curve at half-maximal effect.
Structure (SMILES),Potency,activation
COc1ccc2ccccc2c1/C=N/NC(=O)c1ccc(C)nc1,"inconclusive: 44.7 µM [activator, partial curve, poor fit]",–
Cc1cc(O)ccc1-c1cnc2ccccc2n1,"inconclusive: 0.631 µM [activator, partial curve, poor fit]",–
Cc1cc(CN2CCOCC2)c(O)c(C2(C)CCCCC2)c1,"inconclusive: 39.8 µM [activator, single point]",–
COc1cccc(NC(=O)CN(C)C(=O)c2c(C)noc2C)c1,–,inactive: -1.22%
O=C(NCCc1ccccc1)c1ccc2c(c1)OCCCO2,–,inactive: -5.97%
Clc1ccc2nc(-c3cccc(SC4CCCCC4)c3)c(NCc3ccccc3)n2c1,"inconclusive: 25.1 µM [activator, partial curve]",–
C/C(=N\O)c1cc(Cl)cc(Cl)c1O,–,inactive: 0.485%
CC(C(=O)N1CCc2ccccc21)N1CCN(S(=O)(=O)c2ccc(C(F)(F)F)cc2)CC1 (stereo not given),"inconclusive: 17.8 µM [activator, partial curve]",–
CCC(C)Sc1cccc(-c2nc3cnccn3c2NC2CCCCC2)c1 (stereo not given),"inconclusive: 11.2 µM [activator, partial curve]",–
COc1cc(C(=O)OCC(=O)N(CC(C)C)C2CCS(=O)(=O)C2)cc(OC)c1C (stereo not given),"inconclusive: 39.8 µM [activator, single point]",–
CCC(C)[C@H](NC(=O)N1CCCCCC1)C(=O)O (stereo not given in full),"inconclusive: 39.8 µM [activator, single point]",–
CCOC(=O)C1=CCC2c3c(c4ccccc4n3C)C(=O)C1N2C(=O)OC(C)(C)C (stereo not given),"inconclusive: 39.8 µM [activator, single point]",–
CCn1cc(C(=O)O)c(=O)c2cc(F)c(N3CCN(C(=S)Nc4ccc(OC)cc4)CC3)cc21,"inconclusive: 39.8 µM [activator, single point]",–
COc1cc(-c2nc3ccc(C)cn3c2NCc2ccccc2)ccc1SC1CCCCC1,"inconclusive: 39.8 µM [activator, single point]",–
Cc1ccc([C@@H]2CC=C(C(=O)O)[C@H](c3ccccc3F)N2S(=O)(=O)c2ccccc2C)cc1,"inconclusive: 22.4 µM [activator, single point]",–
Cc1ccc(-c2cc(-c3ccc(F)cc3)c(C#N)c(N)n2)o1,"inconclusive: 31.6 µM [activator, single point]",–
CC(=O)NCCC(=O)N(Cc1ccccc1)c1nc2c(C)cccc2s1,"inconclusive: 28.2 µM [activator, partial curve]",–
O=C(CSc1nnc(CNC(=O)c2ccccc2)o1)NCCc1ccccc1,"inconclusive: 1.58 µM [activator, full curve]",–
CCN(c1ccccc1)S(=O)(=O)c1ccc(C(=O)N(CCCN(C)C)c2nc3cc4c(cc3s2)OCO4)cc1,"inconclusive: 8.91 µM [activator, single point]",–
Nc1c(C(=O)NC2CC2)c2nc3ccccc3nc2n1-c1ccc2c(c1)OCO2,–,inactive: 15.6%
CCOc1ccc(-c2nc(N)nc(C)c2-c2ccc(Cl)cc2)c(O)c1,"inconclusive: 44.7 µM [activator, partial curve]",–
COC(=O)CCCC1=CC2=C(c3ccccc3)C(=O)C(C)(OC(=O)C3CCCC3)C(=O)C2=CN1Cc1ccc(OC)cc1 (stereo not given),"inconclusive: 39.8 µM [activator, partial curve, poor fit]",–
CSc1nc2c(c(=O)[nH]c(=O)n2C)n1Cc1ccc(Cl)cc1,"inconclusive: 20 µM [activator, single point]",–
Cc1ccc(OCCNS(=O)(=O)c2cccs2)cc1,"inconclusive: 20 µM [activator, partial curve]",–

# Pulled one by one from the list above (five):
Structure (SMILES),Potency,activation
CCOc1ccc(-c2nc(N)nc(C)c2-c2ccc(Cl)cc2)c(O)c1,"inconclusive: 44.7 µM [activator, partial curve]",–
CC(=O)NCCC(=O)N(Cc1ccccc1)c1nc2c(C)cccc2s1,"inconclusive: 28.2 µM [activator, partial curve]",–
CCC(C)[C@H](NC(=O)N1CCCCCC1)C(=O)O (stereo not given in full),"inconclusive: 39.8 µM [activator, single point]",–
Nc1c(C(=O)NC2CC2)c2nc3ccccc3nc2n1-c1ccc2c(c1)OCO2,–,inactive: 15.6%
CCN(c1ccccc1)S(=O)(=O)c1ccc(C(=O)N(CCCN(C)C)c2nc3cc4c(cc3s2)OCO4)cc1,"inconclusive: 8.91 µM [activator, single point]",–

# (continued)

Structure (SMILES),Potency,activation
OCC[C@H]1C[C@@H](O)[C@H](O)[C@]2(OCc3ccccc32)O1,–,inactive: 1.36%
Cc1ccc(-n2nnnc2SC(C)C(=O)Nc2ccc(Cl)cn2)cc1 (stereo not given),"inconclusive: 0.631 µM [activator, full curve, poor fit]",–
Cc1ccc(C)c(S(=O)(=O)N2CCNCC2)c1,–,inactive: -4.31%
O=C(O)c1ccccc1C(=O)c1ccc(-c2ccccc2)cc1,"inconclusive: 1.58 µM [activator, partial curve]",–
CC1C(c2ccccc2)N(C)C(c2ccccc2)CC1(O)c1ccccc1 (stereo not given),active: 10 µM,–
c1ccc(Cc2nnc(-c3ccccc3)o2)cc1,–,inactive: 3.05%
Clc1ccc(-c2nc(N3CCCCC3)nc3ccccc23)cc1,"inconclusive: 22.4 µM [activator, single point]",–
O=C(O)CN1C(=O)/C(=C/c2cccc(Cl)c2)Oc2ccccc21,active: 5.01 µM,–
CCCCCc1ccc(-c2cn(Cc3ccc(C)cc3)nn2)cc1,"inconclusive: 20 µM [activator, partial curve]",–
Cc1c(C(=O)N2CCN(c3cccc(Cl)c3)CC2)cccc1[N+](=O)[O-],–,inactive: -5.46%
O=C(COC(=O)c1ccccc1Cl)NC(=O)NCc1ccccc1,–,inactive: 13.2%
COc1cc2oc(=O)cc(C)c2c(OC)c1OC,–,inactive: 6.24%
COc1ccc(CSc2ccc(-c3nc4ccccn4c3NCc3ccccc3)cc2OC)cc1,"inconclusive: 14.1 µM [activator, partial curve, poor fit]",–
COc1cc2c(cc1NC(=O)C1CCCO1)oc1ccccc12 (stereo not given),"inconclusive: 39.8 µM [activator, single point]",–
CC(C)(C)C(=O)/C(=C\c1ccc([N+](=O)[O-])cc1)n1cncn1,"inconclusive: 3.55 µM [activator, single point]",–
CCOC(=O)/C(=C/c1ccc(N2CCC(c3ccccc3)=N2)cc1)C(C)=O,"inconclusive: 22.4 µM [activator, partial curve, poor fit]",–
CCn1ncc(C2=NOC(C(=O)N3CCC(C(N)=O)CC3)C2)c1C (stereo not given),"inconclusive: 0.708 µM [activator, full curve, poor fit]",–
Clc1ccc(Sc2cc(Cl)c(-c3ccccc3)nn2)cc1,"inconclusive: 35.5 µM [activator, single point]",–
CCc1ccc(S(=O)(=O)NC(CC(=O)O)c2ccccc2)cc1 (stereo not given),"inconclusive: 10 µM [activator, partial curve, poor fit]",–
CC(CCc1ccccc1)NC(=O)COC(=O)c1ccc(F)cc1 (stereo not given),"inconclusive: 0.631 µM [activator, partial curve, poor fit]",–
O=C(Sc1nnc(-c2ccccc2)o1)N1c2ccccc2Sc2ccccc21,–,inactive: -4.49%
CC(=O)N1CCc2c(sc3c2c(=O)n(-c2ccccc2)c(=O)n3Cc2ccccc2Cl)C1,–,inactive: 5.88%
CCOC(=O)c1nnn(-c2nonc2N)c1-c1ccc(Cl)cc1,–,inactive: 2.31%
COc1cccc(CNc2ccc(S(=O)(=O)N3CCCC3)cn2)c1,"inconclusive: 31.6 µM [activator, single point]",–

Structure (SMILES),Potency,activation
O=C1C=CC(=O)N1N(c1ccccc1)c1ccccc1,"inconclusive: 39.8 µM [activator, single point]",–
CCOC(=O)c1c(NC(=O)CSc2nnc(-c3c[nH]c4ccccc34)n2CCOC)sc2c1CCCC2,"inconclusive: 39.8 µM [activator, single point]",–
Cc1cc(Nc2ccccc2)n2nc(C)c(-c3ccccc3)c2n1,active: 28.2 µM,–
COc1cc([N+](=O)[O-])ccc1NC(=O)NCc1cccnc1,"inconclusive: 39.8 µM [activator, single point]",–
CCn1nc(C)c(/C=N/NC(=O)Cn2cncn2)c1C,active: 3.16 µM,–
Cc1ccc(C)n1-c1ccc(-c2ccnc(N)n2)cc1,–,inactive: -3.83%
CCOC(=O)N1CCC(NC2CCCCCCC2)CC1,"inconclusive: 35.5 µM [activator, single point]",–
CSc1ncccc1C(=O)NC(C)CCc1ccccc1 (stereo not given),"inconclusive: 3.55 µM [activator, partial curve]",–
Cc1cccc(NC(c2ccc(C)s2)c2ccc3ccc(C)nc3c2O)n1 (stereo not given),–,inactive: 15.9%
COc1ccc(NC(=O)N2CC(C)OC(C)C2)cc1OC (stereo not given),"inconclusive: 0.562 µM [activator, partial curve, poor fit]",–
COc1cc([N+](=O)[O-])cc(/C=N/NC(=O)c2cc(-c3ccccc3)nc3ccccc23)c1O,"inconclusive: 39.8 µM [activator, single point]",–
CCn1c(CSc2nc3ccccc3s2)nnc1SCC(=O)c1ccc2c(c1)OCCO2,–,inactive: 8.47%
COc1ccc(/C=N/NC(=O)c2ccc(Br)cc2)cc1CN1CCOCC1,–,inactive: -3.29%
O=C1C(NS(=O)(=O)c2ccc(Br)cc2)=C(N2CCCCC2)C(=O)c2ccccc21,–,inactive: -11.8%
Cc1noc(NC(=O)c2ccc(Cl)cc2)c1Cl,"inconclusive: 3.16 µM [activator, single point]",–
COc1ccccc1C(=O)N=c1sc2c(C)ccc(OC)c2n1C,active: 15.8 µM,–
C=CCOC(=O)C1=C[C@H](c2coc3ccccc3c2=O)C[C@H](OCc2ccc(CO)cc2)O1,"inconclusive: 10 µM [activator, partial curve]",–
COC(=O)[C@@H]1C[C@@]2(O)[C@@H](O)[C@@H](O)[C@@H](O)C[C@H]2N1Cc1ccc(Cl)cc1,active: 39.8 µM,–
CSc1ccccc1NC(=O)CCn1c(=O)sc2ccccc21,–,inactive: 6.77%
CC1Cc2ccccc2N1C(=O)Cn1c(=O)oc2cc(S(=O)(=O)NC3CCCC3)ccc21 (stereo not given),"inconclusive: 39.8 µM [activator, single point]",–
COc1nc(OCCNC(=O)Nc2ccccc2)nc(N(C)C)n1,"inconclusive: 1.58 µM [activator, full curve, poor fit]",–
CC1CCCCC1NC(=O)c1cc2c(=O)n3ccccc3nc2n1C (stereo not given),"inconclusive: 35.5 µM [activator, single point]",–
